Laboratory results as given in patent US10017832.
Where a chain is given by its changes, count along the chain named. For some assays here: No signal at the amounts used counts as a negative. For some assays here: Protein sequences can lack the tags named with them. For some assays here: The comparison behind a weaker result is the experiment's own reference, which may not be listed here.

How the values were obtained:
Test in all cases: enzyme reaction in vitro
[1] = target: T1, Cre-A1 K25R,D29R,R32E,D33L,Q35R (UniProt P06956); details: active individually; purified recombinant protein; protein details: N-terminal Met-His7 (in vitro assay)
T1 sequence: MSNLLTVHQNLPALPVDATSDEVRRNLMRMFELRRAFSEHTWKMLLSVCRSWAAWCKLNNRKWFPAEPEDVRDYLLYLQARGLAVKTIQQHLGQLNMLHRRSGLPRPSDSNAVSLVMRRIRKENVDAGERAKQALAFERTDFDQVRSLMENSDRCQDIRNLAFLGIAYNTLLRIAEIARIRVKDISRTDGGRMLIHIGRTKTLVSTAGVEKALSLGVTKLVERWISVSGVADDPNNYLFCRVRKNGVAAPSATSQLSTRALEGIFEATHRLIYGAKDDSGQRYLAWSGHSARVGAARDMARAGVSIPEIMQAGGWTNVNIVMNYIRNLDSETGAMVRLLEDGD

[2] = system: Cre-A1+Cre-B1 chain 1: K25R,D29R,R32E,D33L,Q35R, chain 2: E69D,R72K,L76E; details: combined pair active; purified recombinant protein; protein details: N-terminal Met-His7 (in vitro assay)
[3] = target: T2, Cre-A2 K25R,D29R,R32E,D33L,Q35R,R337E (UniProt P06956); details: reduced relative to Cre-A1; purified recombinant protein; protein details: N-terminal Met-His7 (in vitro assay)
T2 sequence: T1 sequence with R337E

[4] = system: Cre-A2+Cre-B2 chain 1: K25R,D29R,R32E,D33L,Q35R,R337E; details: strong recombinase activity; purified recombinant protein; protein details: N-terminal Met-His7 (in vitro assay)
Cre-A3 = target: T3, Cre-A3 (UniProt P06956); details: homotetramer recombination disrupted; DNA binding not measured; purified recombinant protein; protein details: N-terminal Met-His7 (in vitro assay)
T3 sequence: T1 sequence with E123L, R337E

Cre-A3+Cre-B2 = details: heterotetramer active; purified recombinant protein; protein details: N-terminal Met-His7 (in vitro assay)
Cre-B1 E69D,R72K,L76E = target: T4, Cre-B1 E69D,R72K,L76E (UniProt P06956); details: recombination inactive in isolation; DNA binding not measured; purified recombinant protein; protein details: N-terminal Met-His7 (in vitro assay)
T4 sequence: T1 sequence with R25K, R29D, E32R, L33D, R35Q, E69D, R72K, L76E

Cre-B2 = target: T5, Cre-B2 (UniProt P06956); details: recombination inactive in isolation; DNA binding not measured; purified recombinant protein; protein details: N-terminal Met-His7 (in vitro assay)
T5 sequence: T1 sequence with R25K, R29D, E32R, L33D, R35Q, E69D, R72K, L76E, E308R

“ATAACTTCGTATAGCATACATTATACGAAGTTAT (double strand) [loxP]” was tested, and the “activity on this sequence” value [1] was “active”, the “activity on this sequence” value [2] was “active” and the “activity on this sequence” value [3] was “less active”. The “activity on this sequence” value [4] was “active”, the “activity on this sequence” value (Cre-A3) was “not active” and the “activity on this sequence” value (Cre-A3+Cre-B2) was “active”. For the same sequence, the “activity on this sequence” value (Cre-B1 E69D,R72K,L76E) was “not active” and the “activity on this sequence” value (Cre-B2) was “not active”.
